Residue numbers refer to the chain shown, from its start. These are yes or no findings as the source states them, for the method shown. In cells and extracts the contact can be indirect. Some results given as binding are weak or reduced against the parent protein; the word gives no strength. For some assays here: Tags and fused reporters may be left off the sequences shown.

The values that follow come from publication doi:10.1101/2023.05.31.543024.

Experiment in all cases: co-IP
One assay addresses T1, HA-DRG2 wildtype (human) (UniProt P55039).
T1 sequence: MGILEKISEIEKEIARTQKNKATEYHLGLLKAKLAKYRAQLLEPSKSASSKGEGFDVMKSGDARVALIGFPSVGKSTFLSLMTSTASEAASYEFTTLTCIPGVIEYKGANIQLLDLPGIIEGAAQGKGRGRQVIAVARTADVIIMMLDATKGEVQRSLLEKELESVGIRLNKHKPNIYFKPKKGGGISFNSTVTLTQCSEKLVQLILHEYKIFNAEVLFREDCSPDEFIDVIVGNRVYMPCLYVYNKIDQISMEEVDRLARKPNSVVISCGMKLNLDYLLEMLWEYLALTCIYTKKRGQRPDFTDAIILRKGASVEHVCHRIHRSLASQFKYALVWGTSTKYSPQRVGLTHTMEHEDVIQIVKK

The target of assay [1] is T2, HA-DRG2 ERAKY (E153L + R258I + A260Y + K262V + Y278D) (human) (UniProt P55039).
T2 sequence: T1 sequence with E153L, R258I, A260Y, K262V, Y278D

For the next assay, the target named is T3, HA-DRG1 wildtype (human) (UniProt Q9Y295).
T3 sequence: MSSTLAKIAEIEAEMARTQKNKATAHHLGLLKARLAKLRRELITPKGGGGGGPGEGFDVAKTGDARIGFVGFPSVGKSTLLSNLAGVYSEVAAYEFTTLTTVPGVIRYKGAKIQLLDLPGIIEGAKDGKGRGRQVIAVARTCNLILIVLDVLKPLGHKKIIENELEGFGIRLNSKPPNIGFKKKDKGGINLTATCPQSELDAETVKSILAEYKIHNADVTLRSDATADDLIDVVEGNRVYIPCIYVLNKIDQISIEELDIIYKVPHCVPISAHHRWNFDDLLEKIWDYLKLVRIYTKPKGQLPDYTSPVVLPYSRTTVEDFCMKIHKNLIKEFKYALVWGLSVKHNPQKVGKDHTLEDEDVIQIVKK

Assay [2] has as its target T4, DRG family regulatory protein 2 (DFRP2), endogenous (human (endogenous in HEK293T)) (UniProt Q9H446).
T4 sequence: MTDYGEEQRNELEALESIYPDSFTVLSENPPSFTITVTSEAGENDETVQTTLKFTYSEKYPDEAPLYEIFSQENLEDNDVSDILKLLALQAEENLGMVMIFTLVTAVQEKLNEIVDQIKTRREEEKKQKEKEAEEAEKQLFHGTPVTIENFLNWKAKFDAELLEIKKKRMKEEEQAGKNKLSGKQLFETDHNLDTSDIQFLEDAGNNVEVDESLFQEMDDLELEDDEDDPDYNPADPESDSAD

For assay [3], the target named is T5, HA-DRG1 LIYVD (L155E + I260R + Y262A + V264K + D280Y) (human) (UniProt Q9Y295).
T5 sequence: T3 sequence with L155E, I260R, Y262A, V264K, D280Y

The target in assay [4] is T6, DRG2-Flag wildtype (human) (UniProt P55039).
T6 sequence: T1 sequence

For assay [5], the target named is T7, DRG1-Flag LIYVD (L155E + I260R + Y262A + V264K + D280Y) (human) (UniProt Q9Y295).
T7 sequence: T3 sequence with L155E, I260R, Y262A, V264K, D280Y

B1: V5-DFRP1 1-295 (domain or fragment, UniProt Q8WU90 1-295)
chain: MPPKKQAQAGGSKKAEQKKKEKIIEDKTFGLKNKKGAKQQKFIKAVTHQVKFGQQNPRQVAQSEAEKKLKKDDKKKELQELNELFKPVVAAQKISKGADPKSVVCAFFKQGQCTKGDKCKFSHDLTLERKCEKRSVYIDARDEELEKDTMDNWDEKKLEEVVNKKHGEAEKKKPKTQIVCKHFLEAIENNKYGWFWVCPGGGDICMYRHALPPGFVLKKDKKKEEKEDEISLEDLIERERSALGPNVTKITLESFLAWKKRKRQEKIDKLEQDMERRKADFKAGKALVISGREVF
In the case of B1, the binding result is “no binding” with HA-DRG2 wildtype (human), “no binding” in assay [1] and “binds” with HA-DRG1 wildtype (human).

B2: Developmentally Regulated GTP-binding protein 2 (DRG2), endogenous (protein, UniProt P55039 1-364)
chain: T1 sequence
B2: the binding result in assay [2] is “binds”.

B3: DFRP2-V5 (protein, UniProt Q9H446 1-243)
chain: T4 sequence
On to B3, for which the binding entry (in the assay with HA-DRG2 wildtype (human); in assay [3]; in assay [4]; in assay [5]) was “binds” throughout.
